Here are results for one molecule from PMC13321232.

No constants are given. Whether binding was seen depends on the method and setting. In cells and extracts the contact can be indirect. Some entries that bind do so weakly or less than the wild type. Tags and fused reporters may be left off the sequences shown.

The target of experiment [1] is T1, PXL1-flag (Arabidopsis thaliana) (UniProt Q9FRS6).
T1 sequence: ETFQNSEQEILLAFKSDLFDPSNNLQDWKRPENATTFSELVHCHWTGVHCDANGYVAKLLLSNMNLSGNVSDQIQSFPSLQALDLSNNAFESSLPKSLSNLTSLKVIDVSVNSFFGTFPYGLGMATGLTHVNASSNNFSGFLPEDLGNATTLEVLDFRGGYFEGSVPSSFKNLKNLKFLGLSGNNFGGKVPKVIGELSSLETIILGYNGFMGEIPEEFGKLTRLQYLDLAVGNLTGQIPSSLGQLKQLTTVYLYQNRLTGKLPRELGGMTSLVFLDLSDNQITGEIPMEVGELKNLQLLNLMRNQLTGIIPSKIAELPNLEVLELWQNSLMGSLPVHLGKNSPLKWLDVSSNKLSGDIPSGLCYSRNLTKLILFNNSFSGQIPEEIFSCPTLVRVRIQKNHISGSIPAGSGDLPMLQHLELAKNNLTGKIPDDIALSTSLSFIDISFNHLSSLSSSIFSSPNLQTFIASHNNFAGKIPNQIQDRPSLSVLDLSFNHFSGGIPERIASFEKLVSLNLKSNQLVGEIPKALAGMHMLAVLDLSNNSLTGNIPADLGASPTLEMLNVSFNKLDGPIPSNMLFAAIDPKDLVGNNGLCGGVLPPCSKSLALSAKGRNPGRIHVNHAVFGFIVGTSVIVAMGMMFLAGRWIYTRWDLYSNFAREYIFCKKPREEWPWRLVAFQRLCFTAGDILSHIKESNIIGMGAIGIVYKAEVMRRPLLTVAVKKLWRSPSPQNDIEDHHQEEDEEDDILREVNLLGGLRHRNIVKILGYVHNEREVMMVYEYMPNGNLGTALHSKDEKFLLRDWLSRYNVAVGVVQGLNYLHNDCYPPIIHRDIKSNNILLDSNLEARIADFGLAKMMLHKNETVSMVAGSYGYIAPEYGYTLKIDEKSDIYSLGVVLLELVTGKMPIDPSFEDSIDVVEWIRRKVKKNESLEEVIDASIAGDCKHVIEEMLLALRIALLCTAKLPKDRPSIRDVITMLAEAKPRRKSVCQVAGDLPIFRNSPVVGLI
Put plainly: co-IP; FLAG- and HA-tagged proteins cotransfected into Arabidopsis protoplasts from root cell suspension cultures; 10 µM MG132 for 6 h; lysis in 50 mM Tris-HCl pH 7.6, 150 mM NaCl, 1% NP-40, 0.1% SDS; anti-FLAG (anti-DYKDDDDK) or anti-HA magnetic beads, 4 °C; western blot.

Experiment [2] addresses T2, PXL2-flag (Arabidopsis thaliana) (UniProt Q9M0G7).
T2 sequence: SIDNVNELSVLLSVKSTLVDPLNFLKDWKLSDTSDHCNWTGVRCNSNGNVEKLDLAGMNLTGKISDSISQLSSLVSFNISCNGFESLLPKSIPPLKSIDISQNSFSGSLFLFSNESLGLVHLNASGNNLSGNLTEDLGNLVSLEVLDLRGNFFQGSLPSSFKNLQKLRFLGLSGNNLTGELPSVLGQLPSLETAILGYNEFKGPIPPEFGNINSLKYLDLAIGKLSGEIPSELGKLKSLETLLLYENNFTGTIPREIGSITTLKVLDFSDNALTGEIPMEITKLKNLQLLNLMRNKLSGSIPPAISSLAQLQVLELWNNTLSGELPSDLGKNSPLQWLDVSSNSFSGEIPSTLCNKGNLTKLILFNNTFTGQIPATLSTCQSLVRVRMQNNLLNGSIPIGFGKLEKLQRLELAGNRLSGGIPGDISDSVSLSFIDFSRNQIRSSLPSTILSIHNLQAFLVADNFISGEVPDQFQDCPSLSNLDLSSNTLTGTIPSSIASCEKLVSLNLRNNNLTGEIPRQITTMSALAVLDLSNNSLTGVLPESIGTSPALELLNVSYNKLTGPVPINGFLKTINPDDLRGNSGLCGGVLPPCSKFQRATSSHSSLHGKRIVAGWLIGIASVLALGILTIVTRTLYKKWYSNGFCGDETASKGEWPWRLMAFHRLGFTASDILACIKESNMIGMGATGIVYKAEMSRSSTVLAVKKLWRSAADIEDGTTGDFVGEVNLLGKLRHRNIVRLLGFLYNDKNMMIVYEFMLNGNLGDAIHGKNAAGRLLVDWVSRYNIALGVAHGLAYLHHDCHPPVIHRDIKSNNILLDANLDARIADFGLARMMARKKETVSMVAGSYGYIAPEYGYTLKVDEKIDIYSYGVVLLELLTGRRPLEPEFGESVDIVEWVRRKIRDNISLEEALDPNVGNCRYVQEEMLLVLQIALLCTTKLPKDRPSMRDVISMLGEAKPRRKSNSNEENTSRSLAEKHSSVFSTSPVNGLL
The experiment is described as above.

B1: ERL1-HA (receptor, UniProt C0LGW6 26-966)
chain: MNNEGKALMAIKGSFSNLVNMLLDWDDVHNSDLCSWRGVFCDNVSYSVVSLNLSSLNLGGEISPAIGDLRNLQSIDLQGNKLAGQIPDEIGNCASLVYLDLSENLLYGDIPFSISKLKQLETLNLKNNQLTGPVPATLTQIPNLKRLDLAGNHLTGEISRLLYWNEVLQYLGLRGNMLTGTLSSDMCQLTGLWYFDVRGNNLTGTIPESIGNCTSFQILDISYNQITGEIPYNIGFLQVATLSLQGNRLTGRIPEVIGLMQALAVLDLSDNELVGPIPPILGNLSFTGKLYLHGNMLTGPIPSELGNMSRLSYLQLNDNKLVGTIPPELGKLEQLFELNLANNRLVGPIPSNISSCAALNQFNVHGNLLSGSIPLAFRNLGSLTYLNLSSNNFKGKIPVELGHIINLDKLDLSGNNFSGSIPLTLGDLEHLLILNLSRNHLSGQLPAEFGNLRSIQMIDVSFNLLSGVIPTELGQLQNLNSLILNNNKLHGKIPDQLTNCFTLVNLNVSFNNLSGIVPPMKNFSRFAPASFVGNPYLCGNWVGSICGPLPKSRVFSRGALICIVLGVITLLCMIFLAVYKSMQQKKILQGSSKQAEGLTKLVILHMDMAIHTFDDIMRVTENLNEKFIIGYGASSTVYKCALKSSRPIAIKRLYNQYPHNLREFETELETIGSIRHRNIVSLHGYALSPTGNLLFYDYMENGSLWDLLHGSLKKVKLDWETRLKIAVGAAQGLAYLHHDCTPRIIHRDIKSSNILLDENFEAHLSDFGIAKSIPASKTHASTYVLGTIGYIDPEYARTSRINEKSDIYSFGIVLLELLTGKKAVDNEANLHQLILSKADDNTVMEAVDPEVTVTCMDLGHIRKTFQLALLCTKRNPLERPTMLEVSRVLLSLVPSLQVAKKLPSLDHSTKKLQQENEVRNPDAEASQWFVQFREVISKSSI
Regarding B1, the binding entry in experiment [1] and in experiment [2] was “binds” in each case.
